Experimental data taken from the supplement of paper PMC3334620.
The full ranking holds about 33,000 sequences; the median of “E-score (-0.5 to 0.5)” is about -0.016, and the highest 2% start at about 0.3. The list shows a part of the results.

Molecular target: T1, Yer184c (UniProt P39961)
T1 sequence: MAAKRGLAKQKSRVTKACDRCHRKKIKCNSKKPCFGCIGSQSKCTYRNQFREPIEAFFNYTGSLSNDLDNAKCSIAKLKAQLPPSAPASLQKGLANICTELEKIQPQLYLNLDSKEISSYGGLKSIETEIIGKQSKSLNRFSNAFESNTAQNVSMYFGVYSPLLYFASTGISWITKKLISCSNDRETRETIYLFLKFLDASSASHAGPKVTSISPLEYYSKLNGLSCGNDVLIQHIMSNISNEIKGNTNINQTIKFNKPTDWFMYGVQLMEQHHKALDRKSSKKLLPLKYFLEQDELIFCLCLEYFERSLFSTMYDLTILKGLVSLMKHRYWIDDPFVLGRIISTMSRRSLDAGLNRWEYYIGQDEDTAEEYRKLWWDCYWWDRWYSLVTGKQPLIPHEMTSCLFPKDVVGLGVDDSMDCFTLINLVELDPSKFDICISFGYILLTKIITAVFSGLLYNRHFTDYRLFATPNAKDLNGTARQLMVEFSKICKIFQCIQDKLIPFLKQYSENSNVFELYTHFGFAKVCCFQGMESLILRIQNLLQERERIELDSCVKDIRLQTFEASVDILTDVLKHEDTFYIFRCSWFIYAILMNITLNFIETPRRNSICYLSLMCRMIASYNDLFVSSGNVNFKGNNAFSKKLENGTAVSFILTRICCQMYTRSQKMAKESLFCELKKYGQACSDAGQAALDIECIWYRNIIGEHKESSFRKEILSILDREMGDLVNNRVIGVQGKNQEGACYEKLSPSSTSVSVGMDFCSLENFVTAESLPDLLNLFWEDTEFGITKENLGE
Test: PBM E-score (8-mer binding enrichment) (E-score (-0.5 to 0.5)); higher = stronger / more preferred TF binding
Settings: protein concentration: 100 nM; construct: GST-full length
Method in brief: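 The E-score, a modified Wilcoxon-Mann-Whitney statistic, was computed by the Universal PBM Analysis Suite for every ungapped eight-base word pooled with its reverse complement. Scans behind it were normalised with masliner after bound GST-tagged yeast transcription factors were detected with fluorescent anti-GST. The proteins, at about 100-200 nM, had been applied to universal all-10-mer Agilent arrays made double-stranded by primer extension.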

Sequence	PBM E-score
TAAGAATA	-0.0312
ATGCGTCG	-0.0754
AGAATAAA	0.162
ACAGAGTG	-0.0233
GTGCCTAA	-0.0651
AATGATAT	0.127
AGGGACAT	-0.0384
GACGGCTA	0.0159
GCAATAGC	-0.0393
ATCAGTAA	0.166
CGCAATGA	0.00219
CTTCTTCA	-0.0995
GGTCGACC	0.17
CATGCCCG	0.0955
GCAAAATA	0.195
AACTATCT	-0.0408
GCAGACGC	-0.0181
AAGGGGTC	-0.218
GAGGTACA	-0.218
AACTGAAT	-0.141
GCCTCCCC	-0.256
CTCGTCGA	-0.00306
CTATTCGC	-0.0678
GTAATCAA	0.262
AGTCCTGC	-0.0853

Copied from the list.
PBM E-score, GGTCGACC reads 0.17
PBM E-score, ATCAGTAA reads 0.166

Going on with the list:

Sequence	PBM E-score
CTGAGCAC	-0.117
CCCCCTGC	-0.356
CCGCACAG	-0.0342
ATTCATAA	0.156
CGGCAAGC	0.15
CCCTGGCG	-0.278
CTCGTGCC	-0.189
AGGCAATG	-0.133
CTGCTGGA	-0.144
CCATGACA	-0.18
ATAAACTC	0.189
ACCTATTA	-0.0673
ACAAGCCA	-0.266
CAGTATCG	0.00993
AGAGTACT	-0.151
CGACATTC	-0.112
CAACTTGG	-0.0503
AGGGTGAG	-0.224
AGGGTGAC	-0.108
CTATATCC	-0.119
GACCTTAA	-0.13
ATATCCTC	0.0493
CTCTGGCC	-0.0594
ATGATACG	0.231
GTGACCAA	-0.0261

Sequence	PBM E-score
GACGGGAA	0.0118
GAAGTCCC	-0.269
CATTTCTA	0.175
AGAGTTGA	0.0152
AGATTTCG	0.156
TGTACCAA	-0.0606
ACCGGCCG	0.413
GAACCCAC	0.0662
AATCAATT	0.227
AGGCACTA	-0.0569
AGGATACC	-0.0534
ATACGTCC	-0.0599
AGCTAGCG	-0.205
AGTTTAGA	0.0633
AAACACGT	-0.0975
CCTATAAG	-0.211
AGGTGGAA	0.097
ACAGATCC	0.204
ACAAGTCG	-0.246
ATTGGCTA	-0.0201
GTAACGTA	0.0255
CTTTATCC	0.0754
ACCGAAGA	0.344
CAAGCAAC	-0.00493
CTCGGCAA	0.319

Sequence	PBM E-score
AATTCTAG	0.0208
AGCTACAG	-0.229
AAATCCAT	0.0635
ATGTGAAT	0.0398
AGTTTACA	0.0457
AAAGAAGC	0.0902
CCTCCTTC	-0.0753
CCAAGCGC	0.0605
ACAGCGCA	-0.151
ATACGGAT	0.196
ATCCGGCG	0.321
GACGTGGA	-0.317
AAGTAGCC	-0.0314
GCGAATTA	0.122
AGAGAGAC	-0.155
AACATTTC	0.0819
GAGCTTGC	-0.172
ACAATTGG	-0.167
CCGACTCC	-0.00279
GGTAATCA	0.132
CTTGCGTC	-0.153
TAAAAGGA	0.14
CTACCCCC	-0.29
GAGCCGCA	0.0573
CCGACCGA	0.219

Sequence	PBM E-score
GGACTATA	0.0546
AGGTACCG	0.146
CGAATTGC	0.0361
TCGCGGAA	0.137
GAATCTGC	0.12
GGACTGCC	-0.102
ATTAGCAC	0.121
ATTCTTAA	0.00628
CCGGGAAC	0.303
ATCGGGTC	0.122
CAGCACTC	-0.129
GATTTTGC	-0.0335
GCGACACC	-0.0638
CATCGCCG	0.154
ACCCCTTC	-0.285
CCACCGGC	0.146
CGTCTTTA	0.217
CCCTTGCC	-0.229
TCGTCAGA	-0.209
AGGATAGG	-0.108
GAGTTATA	0.0735
GGCGAGGA	-0.0763
CCCTTTTA	-0.145
CGGACTAG	0.0558
GCCATACC	-0.225

Sequence	PBM E-score
CGTTAGAG	-0.0061
ATGTGGTA	0.0324
GCGAGAGA	-0.117
ACTGATCT	0.0596
GAGGACAC	-0.0629
ACCTCCAC	-0.105
GCGGCAAC	0.117
ACATGCGA	-0.123
GCTATCCA	0.0191
GTGTCCCA	-0.0413
AGGTCGAG	-0.159
CAGCGAAC	0.00469
GGAGGCAA	-0.176
GCGCAATA	-0.0434
ATCAGGGG	-0.367
AGAAGGGC	-0.188
GGCACATA	0.0176
CGTTGCCA	0.0238
GGGCTGAA	0.0258
ATCGATTC	-0.0187
AGAGATAA	-0.0218
CACACACG	0.0314
ATCGGCTG	0.223
AGTTTTTC	0.171
CGTGGACC	-0.177

Sequence	PBM E-score
AACGCAGA	0.0553
GTAAGAAC	0.209
CTCGTAAC	-0.0543
ACAAACCT	-0.103
AATTTCAA	0.0699
CCATCAGG	-0.323
TATCACGA	-0.0636
ATATAAGG	0.215
AACCTTCT	-0.00663
CGGGCACG	0.0243
GTAATATA	0.244
ACTGGGCA	-0.199
ACGTCGCA	-0.185
GTATGCTA	-0.0379
CCGCTAGG	-0.0666
CACCACAA	0.0264
CCGCCGCA	0.0998
CTCTCATC	-0.172
CCCGGATA	0.286
CGTCCACA	-0.095
CGGATCAA	0.318
CGGACACC	0.127

At a glance, some entries already given:
Sequence	PBM E-score
ACGTCGCA	-0.185
GTATGCTA	-0.0379
CCGCTAGG	-0.0666
CACCACAA	0.0264
CCGCCGCA	0.0998
CTCTCATC	-0.172
CCCGGATA	0.286
